# In PubChem BioAssay AID2551 (National Center for Advancing Translational Sciences (NCATS), 2010):
# Amino acid sequences for entries named in this document (tags omitted). A change or cut given only in a name is not applied to a line headed by its entry.
# UniProt P51450: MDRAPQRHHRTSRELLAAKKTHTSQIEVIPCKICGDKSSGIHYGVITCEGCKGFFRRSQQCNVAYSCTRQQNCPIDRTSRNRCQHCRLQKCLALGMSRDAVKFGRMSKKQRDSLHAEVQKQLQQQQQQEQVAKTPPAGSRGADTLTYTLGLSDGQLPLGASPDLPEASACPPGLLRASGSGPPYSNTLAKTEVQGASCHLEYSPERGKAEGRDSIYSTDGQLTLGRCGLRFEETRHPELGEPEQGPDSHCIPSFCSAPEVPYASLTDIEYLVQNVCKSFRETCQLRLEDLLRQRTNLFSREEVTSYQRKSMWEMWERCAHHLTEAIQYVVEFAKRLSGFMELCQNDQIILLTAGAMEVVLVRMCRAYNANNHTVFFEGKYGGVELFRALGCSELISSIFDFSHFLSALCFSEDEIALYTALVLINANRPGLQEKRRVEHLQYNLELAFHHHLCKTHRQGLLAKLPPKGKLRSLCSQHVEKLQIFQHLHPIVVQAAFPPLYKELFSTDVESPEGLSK
# About 17,000 (5.5%) of roughly 310,000 compounds were called active. Inconclusive results, whose numbers are uncertain, are shown with a selection of clear calls. Calls come from the whole dose curve; as a rule, active = well fitted inhibition curve with a large enough effect; inconclusive = small, poorly fitted or top-dose-only effect, or effect the other way; inactive = no such curve, though single readings can be large or run the other way. Potencies beside an inconclusive call are fits to weak or partial responses and may not hold up.
# Biological target: Nuclear receptor ROR-gamma (Mus musculus) (UniProt P51450)
# Experiment: qHTS for inhibitors of ROR gamma transcriptional activity; note: nearly all actives have a fitted effect of over 60% in size
# Conditions: Drosophila S2 Gal4-RORgamma UAS-luciferase reporter, 20 h; series mostly up to 53.6 µM
# Outline: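 A Gal4/UAS one-hybrid system in insect cells: metallothionein-promoter Gal4–ROR gamma fusion plus Photinus luciferase reporter. Copper sulfate 700 uM final, 20 hr ambient incubation, luminescent detection after 10 min with reagent.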
# Potency is the fitted concentration of half-maximal effect.
row,SMILES,Potency
1,CCOc1cc(-c2noc(-c3ccncc3)n2)cc(Br)c1OC,"inconclusive: 5.62 µM [inhibitor, single point]"
2,COCCNC(=O)CSc1n[nH]c(=O)n1CCc1ccccc1,inactive
3,COc1ccc(-c2c[n+]3c(n2-c2ccccc2)CCCCC3)cc1,"inconclusive: 5.62 µM [activator, full curve]"
4,C=C(C)C(=O)OCCOC(=O)C(=C)C,inactive
5,O=C(Nc1ccc2c(c1)OCO2)c1ccc(Br)c(S(=O)(=O)N2CCCC2)c1,"inconclusive: 8.91 µM [activator, partial curve]"
6,C[C@@H]1C(=O)O[C@@H]2C[C@]34[C@H]5C[C@@H](C(C)(C)C)[C@@]36[C@@H](OC(=O)[C@@H]6O)O[C@@]4(C(=O)O5)[C@@]12O,inactive
7,Clc1ccc(-c2cn3cc(Cl)ccc3n2)cc1,active: 10 µM
8,CCCn1c(C)nc2c(N(CCN(CC)CC)CCN(CC)CC)nc(C)nc21,inactive
9,COc1ccc(CNC(=O)C2CCN(C(=O)Cc3ccccc3)CC2)cc1,inactive
10,O=c1[nH]c2ccc(Cl)cc2c(O)c1Cc1ccccc1,inactive
11,Cc1cc(SCC(=O)c2ccccc2)nc(SCC(=O)c2ccccc2)n1,"inconclusive: 11.2 µM [activator, single point]"
12,CCc1ccc(NC(=O)C2=CC(c3cccs3)=NS(=O)(=O)N2C)cc1,"inconclusive: 20 µM [activator, single point]"
13,COc1ccc(CN2C(=O)/C(=C/c3ccncc3)SC2=S)cc1,"inconclusive: 35.5 µM [inhibitor, single point]"
14,Cc1ccc(C(=O)Nc2cccc(S(=O)(=O)N3CCOCC3)c2)cc1[N+](=O)[O-],inactive
15,CC(C)CNC(=S)N(CCCO)Cc1cc2cc3c(cc2[nH]c1=O)OCCO3,inactive
16,COCCOC(=O)c1c(C)n(C)c2ccc(OC(=O)C3CC3)cc12,"inconclusive: 35.5 µM [activator, single point]"
17,COc1ccc(-c2ccc(OC)c(C3C4C=CCCC4(C)C(=O)N3Cc3ccccc3)c2)cc1OC (stereo unspecified),inactive
18,Cc1onc(-c2ccccc2Cl)c1C(=O)Nc1sc2c(c1C(N)=O)CCC(C)C2 (stereo unspecified),"inconclusive: 5.62 µM [activator, full curve]"
19,COc1ccc2c(Cl)c(C(=O)NCCc3ccc(S(N)(=O)=O)cc3)sc2c1,"inconclusive: 1.26 µM [activator, single point]"
20,CCOC(=O)CSc1nnc(-c2c[nH]c3ccccc23)n1CC,"inconclusive: 0.0794 µM [activator, full curve]"
21,Cc1ccc(S(=O)(=O)N(Cc2ccccc2)c2ccccc2C(=O)NCc2cccnc2)cc1,inactive
22,CCOCCCn1c(SCC(=O)Nc2cccc(S(=O)(=O)NC3=NCCCCC3)c2)nc2ccccc2c1=O,"inconclusive: 35.5 µM [activator, single point]"
23,C=CCNc1nc2ccccc2nc1NS(=O)(=O)c1ccc(Cl)cc1,"inconclusive: 15.8 µM [activator, partial curve]"
24,COc1ccccc1C(=O)NNC(=O)C(=O)Nc1ccc(C)cc1,active: 11.2 µM

row,SMILES,Potency
1,Oc1ccccc1-c1cc(-c2ccc(Cl)cc2)n[nH]1,active: 7.08 µM
2,COc1ccc(C2=Nn3c(nnc3-c3ccccc3OC)SC2)c(OC)c1,"inconclusive: 31.6 µM [activator, single point]"
3,COc1ccc(-c2noc(-c3ccccc3F)n2)cc1,"inconclusive: 10 µM [inhibitor, single point]"
4,COCCCn1c(N)c(-c2nc3ccccc3n2C)c2nc3ccccc3nc21,active: 3.98 µM
5,Cc1c(-c2cccc(NC(=O)c3ccco3)c2)nc2ncccn12,"inconclusive: 15.8 µM [activator, partial curve]"
6,O=C(CN1C(=O)/C(=C/c2ccccc2Cl)SC1=S)NC1CCS(=O)(=O)C1 (stereo unspecified),inactive
7,CCN1CCC2(CC1)N=C(c1ccc(F)cc1)C(=S)N2C(=O)c1ccc(C(C)(C)C)cc1,active: 3.98 µM
8,O=C(NCc1ccccc1)C(c1ccccn1)N(C(=O)c1csnn1)c1ccccc1F (stereo unspecified),inactive
9,O=c1[nH]c(=O)n([C@H]2C[C@H](O)[C@@H](CO)O2)cc1F,inactive
10,COc1ccc(NC(=O)CCCN2C(=O)C3C4C=CC(C4)C3C2=O)c(OC)c1 (stereo unspecified),"inconclusive: 2.51 µM [activator, full curve, poor fit]"
11,C/C(CC(=O)Nc1ccccc1)=N\NC(=O)COc1ccc(C)cc1Br,"inconclusive: 22.4 µM [inhibitor, single point]"
12,Cc1ccc(-n2nc3ccc(NC(=S)NC(=O)/C=C/c4ccco4)cc3n2)cc1,active: 3.16 µM
13,CCOC(=O)c1c(NC(=S)Nc2cc([N+](=O)[O-])ccc2OC)sc2c1CCCCC2,active: 5.62 µM
14,Fc1ccc(Nc2ccnc(-c3ccoc3)n2)cc1,"inconclusive: 7.94 µM [activator, partial curve]"
15,CCOc1ccc(OCC)c(S(=O)(=O)n2cc(C)nc2CC)c1,"inconclusive: 35.5 µM [inhibitor, single point]"
16,Cc1cccc(C)c1OCC(=O)NC1CC1,"inconclusive: 7.08 µM [inhibitor, partial curve]"
17,CCOc1ccc2c(=O)c(Oc3ccccc3)c(C)oc2c1,"inconclusive: 14.1 µM [activator, single point]"
18,CCOc1cc(NC(=S)Nc2ccccc2OC)c(OCC)cc1NC(=O)c1ccccc1C,active: 1.78 µM
19,COc1ccccc1C/C(N)=N/OC(=O)COc1ccccc1C,"inconclusive: 7.94 µM [activator, full curve, poor fit]"
20,Cc1nn(C)c(C)c1CN(C)C(=O)c1cc2n(n1)C(C(F)(F)F)CC(c1cccs1)N2 (stereo unspecified),"inconclusive: 35.5 µM [activator, single point]"
21,COc1ccc(C(c2nnnn2CC2CCCO2)N2CCN(c3cccc(C)c3C)CC2)cc1 (stereo unspecified),"inconclusive: 20 µM [activator, single point]"
22,CC(=O)c1ccc(NC(=O)C(C)n2c3ccccc3c3nc(=O)cc(C)n32)cc1 (stereo unspecified),inactive
23,CC(=O)c1ccccc1OCCn1nnc(-c2ccc(C)cc2)n1,"inconclusive: 35.5 µM [activator, single point]"
24,CCOC(=O)c1cc2cc(OC)ccc2nc1C,"inconclusive: 14.1 µM [activator, single point]"

# Sorted by number of heavy atoms (low to high): some entries from above
row,SMILES,Potency
4,C=C(C)C(=O)OCCOC(=O)C(=C)C,inactive
16,Cc1cccc(C)c1OCC(=O)NC1CC1,"inconclusive: 7.08 µM [inhibitor, partial curve]"
7,Clc1ccc(-c2cn3cc(Cl)ccc3n2)cc1,active: 10 µM
24,CCOC(=O)c1cc2cc(OC)ccc2nc1C,"inconclusive: 14.1 µM [activator, single point]"
1,Oc1ccccc1-c1cc(-c2ccc(Cl)cc2)n[nH]1,active: 7.08 µM
10,O=c1[nH]c2ccc(Cl)cc2c(O)c1Cc1ccccc1,inactive
17,CCOc1ccc2c(=O)c(Oc3ccccc3)c(C)oc2c1,"inconclusive: 14.1 µM [activator, single point]"
1,CCOc1cc(-c2noc(-c3ccncc3)n2)cc(Br)c1OC,"inconclusive: 5.62 µM [inhibitor, single point]"
24,COc1ccccc1C(=O)NNC(=O)C(=O)Nc1ccc(C)cc1,active: 11.2 µM
12,CCc1ccc(NC(=O)C2=CC(c3cccs3)=NS(=O)(=O)N2C)cc1,"inconclusive: 20 µM [activator, single point]"
6,O=C(CN1C(=O)/C(=C/c2ccccc2Cl)SC1=S)NC1CCS(=O)(=O)C1 (stereo unspecified),inactive
19,COc1ccc2c(Cl)c(C(=O)NCCc3ccc(S(N)(=O)=O)cc3)sc2c1,"inconclusive: 1.26 µM [activator, single point]"
14,Cc1ccc(C(=O)Nc2cccc(S(=O)(=O)N3CCOCC3)c2)cc1[N+](=O)[O-],inactive
4,COCCCn1c(N)c(-c2nc3ccccc3n2C)c2nc3ccccc3nc21,active: 3.98 µM
13,CCOC(=O)c1c(NC(=S)Nc2cc([N+](=O)[O-])ccc2OC)sc2c1CCCCC2,active: 5.62 µM
20,Cc1nn(C)c(C)c1CN(C)C(=O)c1cc2n(n1)C(C(F)(F)F)CC(c1cccs1)N2 (stereo unspecified),"inconclusive: 35.5 µM [activator, single point]"
7,CCN1CCC2(CC1)N=C(c1ccc(F)cc1)C(=S)N2C(=O)c1ccc(C(C)(C)C)cc1,active: 3.98 µM
21,COc1ccc(C(c2nnnn2CC2CCCO2)N2CCN(c3cccc(C)c3C)CC2)cc1 (stereo unspecified),"inconclusive: 20 µM [activator, single point]"
17,COc1ccc(-c2ccc(OC)c(C3C4C=CCCC4(C)C(=O)N3Cc3ccccc3)c2)cc1OC (stereo unspecified),inactive
22,CCOCCCn1c(SCC(=O)Nc2cccc(S(=O)(=O)NC3=NCCCCC3)c2)nc2ccccc2c1=O,"inconclusive: 35.5 µM [activator, single point]"

# Going on with the list.

row,SMILES,Potency
1,Cc1nn(Cc2ccccc2Cl)c(C)c1C(=O)Nc1nnc(C2CC2)s1,"inconclusive: 28.2 µM [inhibitor, single point]"
2,CC1CCc2c(C(=O)NCc3ccco3)csc2C1 (stereo unspecified),"inconclusive: 10 µM [activator, partial curve]"
3,COC(=O)CCC(C)C1CCC2C3CC[C@H]4CC(O)CC[C@@]4(C)C3CC(O)[C@]12C (stereo partly specified),"inconclusive: 20 µM [inhibitor, single point]"
4,COc1ccccc1N1CCN(C2CCCCC2NS(=O)(=O)c2ccc(Cl)cc2)CC1 (stereo unspecified),inactive
5,O=C(Nc1ccc(S(=O)(=O)N2CCc3ccccc32)cc1)c1ccco1,"inconclusive: 31.6 µM [activator, single point]"
6,COc1cc(OC)c(-n2cc(-c3ccc(OC)c(OC)c3)[nH]c2=S)cc1Cl,active: 7.94 µM
7,CCOc1ccc(NC(=O)CC2C(=O)N(c3ccccc3)C(=S)N2Cc2ccccn2)cc1 (stereo unspecified),"inconclusive: 12.6 µM [activator, partial curve]"
8,CCOC(=O)c1c(NC(=O)CC)sc(C(=O)NC2CCCC2)c1C,"inconclusive: 12.6 µM [activator, partial curve]"
9,Cc1ccc(S(=O)(=O)N(C)Cc2ccc(C(=O)NN=C3C4CC5CC(C4)CC3C5)cc2)cc1,inactive
10,Cc1ccc(-n2ncc3c(SCc4ccccc4)ncnc32)cc1,"inconclusive: 35.5 µM [inhibitor, single point]"
11,O=C(Nc1ccc2[nH]ccc2c1)c1ccccc1,"inconclusive: 25.1 µM [inhibitor, single point]"
12,O=C(O)c1cc2ccc3ccccc3c2oc1=O,"inconclusive: 3.16 µM [inhibitor, single point]"
13,O=C(C1CCCN(S(=O)(=O)c2ccccc2[N+](=O)[O-])C1)N1CCCC1 (stereo unspecified),inactive
14,Cc1cc(C)n(CCCNC(=O)c2ccc(S(=O)(=O)NCc3ccco3)cc2)n1,"inconclusive: 0.0447 µM [activator, full curve, poor fit]"
15,C[C@@]12C(=O)N(c3ccc(C(F)(F)F)cc3)C(=O)N1[C@@H]1c3ccccc3OC[C@@H]1[C@H]2c1ccccc1,"inconclusive: 31.6 µM [activator, single point]"
16,COc1ccc(-c2cn3cc(C)ccc3n2)cc1Br,"inconclusive: 11.2 µM [inhibitor, partial curve, poor fit]"
17,Brc1nc(Br)n(Cc2ccccc2)n1,inactive
18,COC(=O)c1cc(=O)n(Cc2ccc3c(c2)OCO3)c(=Nc2ccccc2)s1,"inconclusive: 6.31 µM [inhibitor, single point]"
19,CCOc1ccc(C(C)=O)cc1COC(=O)CCc1cc(OC)c(OC)c(OC)c1,"inconclusive: 1.58 µM [activator, partial curve, poor fit]"
20,O=C(O)C1C2CCC(CC2)C1C(=O)N1CCN(Cc2ccc(F)cc2)CC1 (stereo unspecified),inactive
21,CCCn1nnnc1NC(=O)c1cc(Br)ccc1OC,active: 3.16 µM
22,CC(=O)C1=C(c2ccccc2)N(C(C)=O)n2c(C)nnc2S1,active: 11.2 µM
23,CCc1nn2c(=O)c(S(=O)(=O)Nc3ccc(C(C)C)cc3)c(C)nc2s1,"inconclusive: 8.91 µM [activator, partial curve]"

# Some of the entries so far, as tab-separated lines.
row	SMILES	Potency
4	C=C(C)C(=O)OCCOC(=O)C(=C)C	inactive
11	C/C(CC(=O)Nc1ccccc1)=N\NC(=O)COc1ccc(C)cc1Br	inconclusive: 22.4 µM [inhibitor, single point]
